# Test results: PubChem BioAssay AID445 (National Center for Advancing Translational Sciences (NCATS), 2006)
# The other results are listed elsewhere or left out. Further columns of the screen follow, without active or inactive calls. The list favours compounds with an active or inconclusive main result. Words in brackets tell the shape of the fitted curve; partial curves, single points and poor fits give uncertain potencies.
# Assay: IkB Signaling
# Conditions: ABC-DLBCL IkBa-CBG/CBR dual luciferase ratio (green luciferase fused to IkBa over red control in OCI-Ly3 lymphoma cells), 4 h
# How it was run: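 Luminescence ratio of IκBα-fused green versus native red beetle luciferase in OCI-Ly3 cells, 4 h post-doxycycline with compound; red signal alone, scaled from basal (0%) to zero light (-100%), flagged nonspecific or cytotoxic effects.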
# [1] = measured here: control luc red channel unless noted
structure (smiles),measurement,setting,value
CCOC(=O)c1ccc2c(c1)N(Cc1ccccc1)C(=O)c1ccccc1S2,AC50,[1],"39.8 µM [falling, single point]"
CCCCc1ccc(NC(=O)CSc2nc3ccccc3nc2N2CCOCC2)cc1,AC50,[1],"5.01 µM [falling, partial curve]"
O=C(Nc1cc(Cl)cc(Cl)c1)c1ccc(F)c(S(=O)(=O)NC2CCCCC2)c1,AC50,[1],"20 µM [falling, partial curve]"
COc1cccc(-c2cc(C(=O)Nc3ccn(Cc4ccc(C)cc4)n3)no2)c1,AC50,[1],"7.94 µM [falling, partial curve]"
CC(C)c1ccc2oc(-c3ccc(NC(=O)c4cc5ccccc5o4)cc3)nc2c1,AC50,[1],"1 µM [falling, full curve]"
NC(=O)CSc1nnc(Cc2csc(Nc3ccccc3)n2)n1Cc1ccccc1,AC50,[1],"3.98 µM [falling, partial curve]"
COc1ccc(C2C(=O)N(C3CCCCCC3)CC(=O)N2CCC2=CCCCC2)cc1 (configuration not stated),AC50,[1],"15.8 µM [falling, partial curve]"
CS(=O)(=O)N1CCCc2cc(C(=O)Nc3cccc(C(F)(F)F)c3)ccc21,AC50,[1],"31.6 µM [falling, partial curve]"
CC(=O)c1ccc(N2CCN(c3ncnc4onc(C)c34)CC2)cc1,AC50,[1],"2.51 µM [falling, partial curve]"
CC1CCC(NC(=O)c2ccc(CS(=O)(=O)c3c(Cl)cccc3Cl)o2)CC1 (configuration not stated),AC50,[1],"31.6 µM [falling, single point]"
CCOC(=O)c1ccc2c(c1)nc(C1CCN(S(=O)(=O)c3cccs3)CC1)n2CC,AC50,[1],"20 µM [falling, partial curve]"
COc1cc(-c2nc(-c3cccc(Cl)c3)c(-c3ccccc3)[nH]2)cc(OC)c1OC,AC50,[1],"7.94 µM [falling, full curve]"
COc1ccc(OCC(=O)Nc2ccccc2C(=O)OCc2cc(=O)n3nc(C)sc3n2)cc1,AC50,[1],"1.58 µM [falling, partial curve]"
COC(=O)c1ccc(CSc2nc3c(c(=O)[nH]2)CCC3)cc1,AC50,[1],"15.8 µM [falling, single point]"
Cn1c(=O)cc(SCC(=O)N2CCN(c3ccccc3F)CC2)c2cc(Cl)ccc21,AC50,[1],"20 µM [falling, partial curve]"
COc1cc(Cn2c(=O)sc3ccccc32)ccc1OCCC(C)C,AC50,[1],"12.6 µM [falling, partial curve, poor fit]"
CC(C)c1ccc2c(c1)-c1ccccc1S(=O)(=O)N2CC(=O)N1CCCCC1,AC50,[1],"39.8 µM [falling, single point]"
O=C(CSc1ncc(-c2ccccc2)[nH]1)Nc1cccc(C(F)(F)F)c1,AC50,[1],"31.6 µM [falling, partial curve]"
O=C1c2ccccc2C(=O)N1CC#CCN1CCN(C2CCCCC2)CC1,AC50,[1],"31.6 µM [falling, single point]"
O=C(c1ccco1)N1c2ccccc2Sc2ccccc21,AC50,[1],"15.8 µM [falling, partial curve]"
Cc1ccccc1-c1nc(CS(=O)(=O)CC(=O)Nc2cc(Cl)cc(Cl)c2)c(C)o1,AC50,[1],"15.8 µM [falling, partial curve]"
COc1ccc2nc(NC(=O)CSC3=NCCS3)sc2c1,AC50,[1],"31.6 µM [falling, single point]"
COc1ccc(-c2cc(C(C)=O)c(C)n2CCC(=O)Nc2ccc(C(F)(F)F)cc2)cc1,AC50,[1],"39.8 µM [rising, partial curve, poor fit]"
COc1ccccc1NC(=O)Cn1c(=O)n(Cc2ccccc2)c(=O)c2c3c(sc21)CN(C(C)=O)CC3,AC50,[1],"2 µM [rising, partial curve]"
COc1ccccc1CNC(=O)Cn1c(=O)oc2cc(S(=O)(=O)NCc3ccccc3)ccc21,AC50,[1],"39.8 µM [falling, single point]"
CC1=C(C(=O)Nc2ccc(Cl)cc2)C(C(C)C)n2nc(SCc3ccc(Cl)cc3)nc2N1 (configuration not stated),AC50,[1],"20 µM [falling, partial curve]"
O=C(Nc1cccc(-c2nnc(-c3ccccc3)o2)c1)c1ccc(Br)o1,AC50,[1],"10 µM [falling, partial curve]"
COc1ccc(OC)c(CCNC(=O)C2=C(C)C(=O)OC23CCC(C)CC3)c1 (configuration not stated),AC50,[1],"39.8 µM [falling, single point]"
O=C(Cn1nc(C(F)(F)F)c2c1CCC2)Nc1ccc(Cl)cc1,AC50,[1],"39.8 µM [falling, single point]"
CCC(=O)OCC(=O)[C@@]1(OC(=O)CC)[C@H](C)C[C@@H]2[C@H]3CCC4=CC(=O)C=C[C@]4(C)[C@]3(Cl)[C@@H](O)C[C@@]21C,AC50,[1],"2.51 nM [rising, full curve] [measured here: IkB-luc green channel]"
Fc1ccc(-c2cc(C(F)(F)F)nc(N3CCCCC3)n2)cc1,AC50,[1],"63.1 nM [rising, full curve, poor fit] [measured here: IkB-luc green channel]"
COc1cc(CN(C(=O)c2cccc(C)c2)c2ccccn2)cc(OC)c1OC,AC50,[1],"15.8 µM [falling, partial curve, poor fit]"
CC(C)CCn1c(N)c(S(=O)(=O)c2cccs2)c2nc3ccccc3nc21,AC50,[1],"20 µM [falling, partial curve]"
COC(=O)C1=C(C)Nc2nnnn2C1c1ccc(Cl)cc1Cl (configuration not stated),AC50,[1],"25.1 µM [falling, partial curve]"
CCN(C(=O)CN(C)S(=O)(=O)c1ccc2c(c1)n(C)c(=O)c(=O)n2C)c1cccc(C)c1,AC50,[1],"39.8 µM [falling, single point]"
CN(C)c1ccc(C(CNS(=O)(=O)c2cc(F)ccc2F)N2CCOCC2)cc1 (configuration not stated),AC50,[1],"0.02 µM [rising, full curve, poor fit]"
Cc1csc(SCC(=O)c2cc(C)n(Cc3cccs3)c2C)n1,AC50,[1],"31.6 µM [falling, partial curve]"
COc1ccc(NC(=O)c2cnc(SCC(=O)Nc3nc4ccc(C)cc4s3)n(C)c2=O)cc1,AC50,[1],"25.1 µM [falling, partial curve]"
Cc1cccc(C(=O)NCC(c2ccc3c(c2)OCO3)N2CCOCC2)c1 (configuration not stated),AC50,[1],"0.0398 µM [rising, full curve]"
Cc1ccc(-c2noc(CSc3nnc(-c4ccc(Cl)cc4)n3C)n2)cc1,AC50,[1],"15.8 µM [falling, partial curve, poor fit]"
O=C(c1ccco1)c1cn(CCOc2ccc(Cl)cc2)c2ccccc12,AC50,[1],"7.94 µM [falling, partial curve]"
Cc1noc(NS(=O)(=O)c2ccc(N)cc2)c1C,AC50,measured here: IkB-luc green channel,"39.8 µM [rising, single point]"
same,AC50,measured here: control luc red channel,"39.8 µM [rising, single point]"
O=C(c1cccs1)N1CCCc2cc(NS(=O)(=O)c3ccc(Cl)cc3)ccc21,AC50,[1],"25.1 µM [falling, single point]"
COc1ccccc1-c1cc(C(F)(F)F)nc(S(=O)(=O)CCCC(=O)Nc2cc(Br)ccc2O)n1,AC50,[1],"1.26 µM [falling, full curve]"
COc1cccc(-n2c(=O)c3c4c(sc3n(Cc3ccc(F)cc3Cl)c2=O)CCCC4)c1,AC50,[1],"0.0631 µM [rising, full curve, poor fit]"
O=C(NCc1ccco1)C(c1cccs1)N(C(=O)Cc1cccs1)c1ccccc1 (configuration not stated),AC50,[1],"15.8 µM [falling, partial curve]"
CCc1ccc(NC(=O)CC(c2ccc(C)cc2)N2Cc3ccccc3C2=O)cc1 (configuration not stated),AC50,[1],"15.8 µM [falling, single point]"
COCCNC(=O)c1ccc2nc(CCc3ccccc3)oc2c1,AC50,[1],"15.8 µM [rising, partial curve]"
Cc1ccc(Cl)cc1N1CCN(C(=O)CCSCc2ccccc2F)CC1,AC50,[1],"31.6 µM [falling, partial curve]"
CCc1ccc(-c2cc(C)no2)cc1S(=O)(=O)N1CCN(c2cccc(Cl)c2)CC1,AC50,[1],"15.8 µM [rising, partial curve]"
COc1cc(C2Nc3ccccc3C(=O)N2c2ccccc2OC)ccc1O (configuration not stated),AC50,[1],"3.16 µM [falling, full curve]"
Cc1oc(-c2ccc(Cl)cc2)nc1CN1CCCC(C(=O)N2CCN(C(=O)c3ccco3)CC2)C1 (configuration not stated),AC50,[1],"12.6 µM [falling, partial curve]"
COCCn1c(SCCCc2ccccc2)nc2c1c(=O)[nH]c(=O)n2C,AC50,[1],"20 µM [falling, partial curve, poor fit]"
Cc1ccc(NC(=O)Nc2cc3c(cc2N2CCCCC2)n(C)c(=O)n3C)cc1Cl,AC50,[1],"10 µM [falling, partial curve]"
Cc1cc(Nc2nnnn2-c2ccccc2)n(-c2ccc(Cl)cc2)n1,AC50,[1],"15.8 µM [falling, partial curve]"
CCOc1ccccc1NC(=O)COc1cccc2c(=O)n(CCOC)ccc12,AC50,[1],"0.631 µM [falling, full curve]"
O=C(NCCc1ccc(Cl)cc1)c1ccc2c(c1)N(Cc1ccccc1)CCS2,AC50,[1],"15.8 µM [falling, single point]"
O=C(Nc1ccc2oc(-c3cccnc3)nc2c1)c1ccc(-c2cccc(OC(F)(F)F)c2)o1,AC50,[1],"3.16 µM [falling, full curve]"
COc1cccc(N2CCN(C(=O)c3ccc(CS(=O)c4cccc(Cl)c4)o3)CC2)c1 (configuration not stated),AC50,[1],"31.6 µM [falling, single point]"
COc1cccc(CNS(=O)(=O)c2cc(Br)cc3c2N(C(C)=O)C(C)C3)c1 (configuration not stated),AC50,[1],"0.1 µM [falling, full curve]"
CCOC(=O)c1c(NC(=O)C(F)(OC)C(F)(F)F)sc(C(=O)N2CCCCC2)c1C (configuration not stated),AC50,[1],"31.6 µM [falling, single point]"

# 2 records picked at random from those above:
structure (smiles),measurement,setting,value
Cc1ccc(-c2noc(CSc3nnc(-c4ccc(Cl)cc4)n3C)n2)cc1,AC50,[1],"15.8 µM [falling, partial curve, poor fit]"
COc1cc(CN(C(=O)c2cccc(C)c2)c2ccccn2)cc(OC)c1OC,AC50,[1],"15.8 µM [falling, partial curve, poor fit]"

# 2 successive entries already listed, quoted:
structure (smiles),measurement,setting,value
O=C(NCc1ccco1)C(c1cccs1)N(C(=O)Cc1cccs1)c1ccccc1 (configuration not stated),AC50,[1],"15.8 µM [falling, partial curve]"
CCc1ccc(NC(=O)CC(c2ccc(C)cc2)N2Cc3ccccc3C2=O)cc1 (configuration not stated),AC50,[1],"15.8 µM [falling, single point]"
